Laboratory results reported in patent US4766108A, “Tyr-Arg-vasopressin antagonists” (Smith Kline Beckman Corporation, priority 1986, dated 1988).
At least one peptide structure holds a part that was inferred or is arguable (an end, a ring closure or a residue). Numbered stars: 1 amine (or outer) side, 2 acyl side, 3 side chain; on linkers, the order of the positions; unused ones are H or OH. Bridge positions count the residues as written; N and C are the ends. Square brackets hold non-standard residues; d marks the D form. Peptide text beside a SMILES is read from it. X1 = O=C(CC1(S[*:2])CCCCC1)[*:1]

The chains behind the UniProt entries cited, without tags or fusion partners.
UniProt P37288, whole entry: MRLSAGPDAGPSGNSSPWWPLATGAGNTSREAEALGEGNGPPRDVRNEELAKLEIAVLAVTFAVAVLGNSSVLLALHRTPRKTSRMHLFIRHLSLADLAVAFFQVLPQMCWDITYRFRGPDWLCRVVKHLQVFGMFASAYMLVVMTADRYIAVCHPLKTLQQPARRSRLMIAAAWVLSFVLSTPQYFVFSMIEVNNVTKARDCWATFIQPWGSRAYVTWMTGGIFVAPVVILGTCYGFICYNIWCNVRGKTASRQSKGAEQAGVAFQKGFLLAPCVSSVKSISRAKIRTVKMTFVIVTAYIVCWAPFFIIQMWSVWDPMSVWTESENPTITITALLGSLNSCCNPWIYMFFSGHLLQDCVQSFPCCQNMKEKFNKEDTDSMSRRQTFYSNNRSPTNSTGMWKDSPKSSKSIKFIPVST

Key:
hydropenic rat = assay: Hydropenic rat screen (anti-ADH activity in vivo); conditions: dose to decrease urine osmolality in rats from hydropenic levels (1500 mOsm/kg H2O) to 500 mOsm/kg H2O; intraperitoneal
[1] = biological target: LVP stimulated adenylate cyclase of pig kidney medullary membrane; assay: Inhibition of LVP stimulated adenylate cyclase of pig kidney medullary membrane; type: biochemical; conditions: inhibition constant for LVP stimulated adenylate cyclase
[2] = biological target: T1, V1 receptor, human liver membrane (Homo sapiens, UniProt P37288); assay: Binding to human liver membrane (V1 receptor); conditions: read-out: Kbind human liver (V1 receptor)
T1 construct: from tissue; host or cells: human liver membranes
Procedure: V2 -antagonistic activity toward the natural anti-diuretic hormone (anti-ADH activity) is determined, in vitro, in the medullary tissue of hog or human kidneys and, in vivo, in the hydropenic rat. The in vitro assay procedures for vasopressin stimulated adenylate cyclase activation or vasopressin binding activity are described by F. Stassen et al., J. Pharmacology and Experimental Therapeutics, 223, 50-54 (1982). V1 -antagonistic activity is determined by procedures using the rat thoracic aortic tissue and plasma membranes of rat liver. These procedures are described in the noted Stassen publication and in a publication at the lst International Conference on Diuretics, Miami, Fla., March (1984). Oxytocin antagonism is determined as described by W. Sawyer et al., Endocrinology, 106 81 (1979).
^d Kbind relates to human liver membrane activity.

SMILES	ED500 (hydropenic rat)	Ki [1]	Ki [2]
CCOc1ccc(C[C@H]2NC(=O)CC3(CCCCC3)SSC[C@@H](C(=O)N[C@@H](CCCNC(=N)N)C(=O)N[C@@H](Cc3ccc(O)cc3)C(N)=O)NC(=O)[C@H](CC(N)=O)NC(=O)[C@H](C(C)C)NC(=O)[C@H](Cc3ccccc3)NC2=O)cc1 [No. 2, [1-(β-mercapto-β,β-cyclopentamethylene-propionic acid)-2-(O-ethyl)-D-tyrosine-4-valine-7-arginine-8-tyrosine-9-desglycine]-vasopressin] ([dY](Et)FVNCRY-NH2; linker N-5 via X1)	68.6 µg/kg	4.2 nM	–
CCOc1ccc(C[C@H]2NC(=O)CC3(CCCCC3)SSC[C@@H](C(=O)N[C@@H](CCCNC(=N)N)C(N)=O)NC(=O)[C@H](CC(N)=O)NC(=O)[C@H](C(C)C)NC(=O)[C@H](Cc3ccccc3)NC2=O)cc1 [compound 5] ([dY](Et)FVNCR-NH2; linker N-5 via X1)	18.8 µg/kg	–	–
CCOc1ccc(C[C@H]2NC(=O)CC3(CCCCC3)SSC[C@@H](C(=O)N[C@@H](CCCCN)C(=O)N[C@@H](CCCNC(=N)N)C(N)=O)NC(=O)[C@H](CC(N)=O)NC(=O)[C@H](C(C)C)NC(=O)[C@H](Cc3ccccc3)NC2=O)cc1 [compound 4] ([dY](Et)FVNCKR-NH2; linker N-5 via X1)	7.9 µg/kg	4.2 nM	–
CCOc1ccc(C[C@H]2NC(=O)CC3(CCCCC3)SSC[C@@H](C(=O)N[C@@H](CCCNC(=N)N)C(=O)N[C@@H](CCCNC(=N)N)C(N)=O)NC(=O)[C@H](CC(N)=O)NC(=O)[C@H](C(C)C)NC(=O)[C@H](Cc3ccccc3)NC2=O)cc1 [compound 3] ([dY](Et)FVNCRR-NH2; linker N-5 via X1)	6.3 µg/kg	2 nM	1.27 nM
CCOc1ccc(C[C@H]2NC(=O)CC3(CCCCC3)SSC[C@@H](C(=O)N[C@@H](Cc3ccc(O)cc3)C(=O)N[C@@H](CCCNC(=N)N)C(N)=O)NC(=O)[C@H](CC(N)=O)NC(=O)[C@H](C(C)C)NC(=O)[C@H](Cc3ccccc3)NC2=O)cc1 [No. 1, [1-(β-mercapto-β,β-cyclopentamethylene-propionic acid)-2-(O-ethyl)-D-tyrosine-4-valine-7-tyrosine-8-arginine-desglycine]-vasopressin] ([dY](Et)FVNCYR-NH2; linker N-5 via X1)	5.6 µg/kg	2.1 nM	–
